Reference: the supplement of paper PMC10849652
This is one part of the list.

Chains of the proteins cited; added tags and fusions are not shown. Lines headed by an entry give the natural chain unless they say otherwise; changes in a name come on top.
UniProt O95714: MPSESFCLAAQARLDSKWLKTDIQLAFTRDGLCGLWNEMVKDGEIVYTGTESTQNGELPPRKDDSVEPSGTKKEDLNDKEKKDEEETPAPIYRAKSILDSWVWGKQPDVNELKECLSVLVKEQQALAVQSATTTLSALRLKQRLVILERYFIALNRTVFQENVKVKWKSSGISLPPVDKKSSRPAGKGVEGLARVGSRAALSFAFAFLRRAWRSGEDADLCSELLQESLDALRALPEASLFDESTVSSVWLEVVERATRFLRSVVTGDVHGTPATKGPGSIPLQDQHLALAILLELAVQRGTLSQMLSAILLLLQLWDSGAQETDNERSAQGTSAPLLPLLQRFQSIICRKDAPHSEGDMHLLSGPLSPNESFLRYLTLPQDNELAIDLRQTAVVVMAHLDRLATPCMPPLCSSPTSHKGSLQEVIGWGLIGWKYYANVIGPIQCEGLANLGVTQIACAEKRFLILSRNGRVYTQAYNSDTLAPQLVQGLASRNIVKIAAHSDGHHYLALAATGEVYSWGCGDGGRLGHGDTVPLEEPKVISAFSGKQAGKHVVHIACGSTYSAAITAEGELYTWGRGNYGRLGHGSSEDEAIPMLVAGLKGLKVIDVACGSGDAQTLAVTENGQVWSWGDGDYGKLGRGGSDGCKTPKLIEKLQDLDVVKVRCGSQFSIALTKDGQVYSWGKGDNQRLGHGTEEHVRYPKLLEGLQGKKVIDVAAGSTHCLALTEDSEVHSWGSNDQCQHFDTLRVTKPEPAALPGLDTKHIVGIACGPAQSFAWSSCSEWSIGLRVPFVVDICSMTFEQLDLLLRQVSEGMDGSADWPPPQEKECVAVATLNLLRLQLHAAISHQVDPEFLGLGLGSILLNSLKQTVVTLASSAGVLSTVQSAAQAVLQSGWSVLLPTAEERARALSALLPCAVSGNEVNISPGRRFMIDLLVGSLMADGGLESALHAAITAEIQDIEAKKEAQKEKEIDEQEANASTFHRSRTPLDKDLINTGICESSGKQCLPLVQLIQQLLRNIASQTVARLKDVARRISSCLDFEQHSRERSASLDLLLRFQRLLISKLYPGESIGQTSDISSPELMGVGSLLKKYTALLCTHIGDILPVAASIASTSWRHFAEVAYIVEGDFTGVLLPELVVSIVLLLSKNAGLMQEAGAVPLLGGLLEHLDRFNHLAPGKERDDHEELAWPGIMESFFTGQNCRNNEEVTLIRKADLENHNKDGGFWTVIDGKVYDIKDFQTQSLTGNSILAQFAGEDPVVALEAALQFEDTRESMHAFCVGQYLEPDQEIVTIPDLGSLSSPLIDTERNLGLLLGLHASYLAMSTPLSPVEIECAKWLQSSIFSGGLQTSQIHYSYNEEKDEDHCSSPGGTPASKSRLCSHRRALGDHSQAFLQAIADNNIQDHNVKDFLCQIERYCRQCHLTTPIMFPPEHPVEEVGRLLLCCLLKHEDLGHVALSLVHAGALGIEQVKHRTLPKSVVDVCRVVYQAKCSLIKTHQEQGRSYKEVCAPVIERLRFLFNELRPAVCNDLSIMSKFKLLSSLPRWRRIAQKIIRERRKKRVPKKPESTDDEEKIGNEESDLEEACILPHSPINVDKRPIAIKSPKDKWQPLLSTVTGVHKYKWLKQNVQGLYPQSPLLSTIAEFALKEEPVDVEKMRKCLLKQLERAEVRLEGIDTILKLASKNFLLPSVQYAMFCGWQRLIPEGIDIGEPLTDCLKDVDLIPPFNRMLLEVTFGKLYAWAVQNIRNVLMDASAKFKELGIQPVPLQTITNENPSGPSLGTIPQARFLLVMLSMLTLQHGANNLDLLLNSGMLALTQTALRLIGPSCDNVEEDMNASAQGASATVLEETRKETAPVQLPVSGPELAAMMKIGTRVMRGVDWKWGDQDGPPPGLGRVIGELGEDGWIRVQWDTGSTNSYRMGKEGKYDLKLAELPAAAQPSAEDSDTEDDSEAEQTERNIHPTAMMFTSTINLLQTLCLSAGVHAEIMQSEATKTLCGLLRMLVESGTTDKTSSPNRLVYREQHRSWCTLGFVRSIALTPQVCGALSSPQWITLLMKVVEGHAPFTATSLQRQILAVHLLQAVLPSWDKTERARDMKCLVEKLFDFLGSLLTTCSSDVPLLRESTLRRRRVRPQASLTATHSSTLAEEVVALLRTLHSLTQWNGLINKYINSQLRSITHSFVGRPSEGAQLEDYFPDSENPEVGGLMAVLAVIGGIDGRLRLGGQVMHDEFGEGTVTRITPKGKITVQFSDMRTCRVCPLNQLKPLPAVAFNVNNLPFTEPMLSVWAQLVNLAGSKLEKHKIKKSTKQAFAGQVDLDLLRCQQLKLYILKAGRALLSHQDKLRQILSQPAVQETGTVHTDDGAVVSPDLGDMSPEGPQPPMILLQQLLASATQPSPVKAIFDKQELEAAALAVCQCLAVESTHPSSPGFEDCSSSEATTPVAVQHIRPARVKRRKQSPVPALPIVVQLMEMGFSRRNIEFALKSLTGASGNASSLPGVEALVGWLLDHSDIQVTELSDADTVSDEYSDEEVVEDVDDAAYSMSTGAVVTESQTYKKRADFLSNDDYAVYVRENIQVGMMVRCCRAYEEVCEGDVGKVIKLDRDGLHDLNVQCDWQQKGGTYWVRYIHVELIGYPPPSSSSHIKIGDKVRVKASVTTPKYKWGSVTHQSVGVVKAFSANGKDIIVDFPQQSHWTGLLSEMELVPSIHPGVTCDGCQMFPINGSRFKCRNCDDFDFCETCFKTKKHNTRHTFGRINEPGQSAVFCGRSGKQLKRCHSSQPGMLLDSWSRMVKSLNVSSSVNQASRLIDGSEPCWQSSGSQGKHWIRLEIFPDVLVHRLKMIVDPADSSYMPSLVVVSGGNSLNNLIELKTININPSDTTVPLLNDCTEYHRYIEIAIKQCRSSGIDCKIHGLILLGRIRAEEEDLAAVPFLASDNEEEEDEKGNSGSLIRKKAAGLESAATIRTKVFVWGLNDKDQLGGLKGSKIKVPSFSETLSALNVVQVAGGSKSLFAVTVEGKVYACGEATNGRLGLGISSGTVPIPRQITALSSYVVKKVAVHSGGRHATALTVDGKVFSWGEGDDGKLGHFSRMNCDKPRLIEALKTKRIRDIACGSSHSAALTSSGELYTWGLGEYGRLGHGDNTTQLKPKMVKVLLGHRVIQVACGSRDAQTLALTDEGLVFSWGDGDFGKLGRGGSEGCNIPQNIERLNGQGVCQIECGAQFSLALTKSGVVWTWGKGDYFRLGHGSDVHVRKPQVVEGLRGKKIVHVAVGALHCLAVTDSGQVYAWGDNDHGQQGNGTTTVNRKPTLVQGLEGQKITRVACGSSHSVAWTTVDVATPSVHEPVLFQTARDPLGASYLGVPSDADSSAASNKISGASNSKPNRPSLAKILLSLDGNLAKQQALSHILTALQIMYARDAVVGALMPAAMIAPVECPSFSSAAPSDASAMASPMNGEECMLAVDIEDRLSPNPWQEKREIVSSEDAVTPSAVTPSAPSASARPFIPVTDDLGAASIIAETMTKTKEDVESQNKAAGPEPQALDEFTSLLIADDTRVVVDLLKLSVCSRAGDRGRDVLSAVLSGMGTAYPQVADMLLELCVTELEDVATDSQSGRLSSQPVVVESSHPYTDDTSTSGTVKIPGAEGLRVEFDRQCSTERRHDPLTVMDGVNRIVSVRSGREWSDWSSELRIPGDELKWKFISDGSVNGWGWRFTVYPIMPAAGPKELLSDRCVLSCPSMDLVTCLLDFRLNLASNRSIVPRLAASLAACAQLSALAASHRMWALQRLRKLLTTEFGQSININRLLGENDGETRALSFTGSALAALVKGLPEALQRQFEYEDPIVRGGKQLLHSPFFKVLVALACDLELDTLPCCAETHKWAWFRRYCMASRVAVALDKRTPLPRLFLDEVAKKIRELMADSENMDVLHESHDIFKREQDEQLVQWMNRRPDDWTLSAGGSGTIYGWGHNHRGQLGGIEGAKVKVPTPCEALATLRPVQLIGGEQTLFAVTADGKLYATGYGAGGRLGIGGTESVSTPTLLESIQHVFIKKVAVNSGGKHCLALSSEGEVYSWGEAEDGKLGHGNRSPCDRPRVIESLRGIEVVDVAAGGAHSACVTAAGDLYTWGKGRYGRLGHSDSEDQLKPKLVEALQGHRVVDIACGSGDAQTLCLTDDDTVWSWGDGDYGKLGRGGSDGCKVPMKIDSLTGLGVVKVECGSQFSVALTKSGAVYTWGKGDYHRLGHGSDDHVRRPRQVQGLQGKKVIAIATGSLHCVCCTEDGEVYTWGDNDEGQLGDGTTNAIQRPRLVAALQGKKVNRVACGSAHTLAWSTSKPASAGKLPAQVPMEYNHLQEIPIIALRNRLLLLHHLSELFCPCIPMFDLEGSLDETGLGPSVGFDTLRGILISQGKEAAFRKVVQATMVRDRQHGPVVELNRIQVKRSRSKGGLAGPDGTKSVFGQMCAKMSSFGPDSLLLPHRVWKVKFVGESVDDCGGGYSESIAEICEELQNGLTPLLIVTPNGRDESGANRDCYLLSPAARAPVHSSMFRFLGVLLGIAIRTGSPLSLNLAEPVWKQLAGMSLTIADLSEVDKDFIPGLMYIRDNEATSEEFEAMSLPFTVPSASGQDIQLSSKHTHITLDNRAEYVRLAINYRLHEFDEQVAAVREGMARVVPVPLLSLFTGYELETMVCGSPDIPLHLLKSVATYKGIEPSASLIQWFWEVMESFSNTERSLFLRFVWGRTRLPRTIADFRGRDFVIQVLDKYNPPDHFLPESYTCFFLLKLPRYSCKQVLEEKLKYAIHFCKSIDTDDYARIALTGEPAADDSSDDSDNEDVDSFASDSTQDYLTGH
UniProt Q969Y2: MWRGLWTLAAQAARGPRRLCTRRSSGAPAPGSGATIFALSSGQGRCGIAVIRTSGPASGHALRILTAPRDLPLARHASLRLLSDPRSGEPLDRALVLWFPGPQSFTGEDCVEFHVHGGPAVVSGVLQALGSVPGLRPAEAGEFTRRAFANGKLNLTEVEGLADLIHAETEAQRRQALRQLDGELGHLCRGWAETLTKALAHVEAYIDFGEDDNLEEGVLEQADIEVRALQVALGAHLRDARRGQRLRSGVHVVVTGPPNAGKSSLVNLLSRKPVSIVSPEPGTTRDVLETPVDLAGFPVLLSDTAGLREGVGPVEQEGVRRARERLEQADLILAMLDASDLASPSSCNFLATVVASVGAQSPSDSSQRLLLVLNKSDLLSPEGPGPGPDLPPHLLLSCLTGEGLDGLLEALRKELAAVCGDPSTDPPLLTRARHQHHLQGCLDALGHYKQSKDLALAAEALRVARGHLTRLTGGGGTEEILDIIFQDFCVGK
UniProt Q8WW33: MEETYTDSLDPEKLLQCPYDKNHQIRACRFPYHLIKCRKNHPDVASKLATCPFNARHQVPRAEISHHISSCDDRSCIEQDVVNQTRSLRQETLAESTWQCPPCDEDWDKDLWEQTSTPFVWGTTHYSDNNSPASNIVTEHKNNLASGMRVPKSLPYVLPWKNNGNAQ
UniProt P09211: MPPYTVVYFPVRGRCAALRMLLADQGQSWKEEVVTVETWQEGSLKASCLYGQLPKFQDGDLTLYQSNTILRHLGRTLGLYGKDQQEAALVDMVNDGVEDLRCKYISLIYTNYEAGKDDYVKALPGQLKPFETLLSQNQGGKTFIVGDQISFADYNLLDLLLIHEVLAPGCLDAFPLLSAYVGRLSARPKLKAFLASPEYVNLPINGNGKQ
UniProt P02724: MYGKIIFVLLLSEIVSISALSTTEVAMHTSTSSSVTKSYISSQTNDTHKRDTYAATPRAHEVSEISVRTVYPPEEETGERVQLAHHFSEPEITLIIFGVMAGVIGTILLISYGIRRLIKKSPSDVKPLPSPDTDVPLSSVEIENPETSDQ
UniProt Q9H6D7: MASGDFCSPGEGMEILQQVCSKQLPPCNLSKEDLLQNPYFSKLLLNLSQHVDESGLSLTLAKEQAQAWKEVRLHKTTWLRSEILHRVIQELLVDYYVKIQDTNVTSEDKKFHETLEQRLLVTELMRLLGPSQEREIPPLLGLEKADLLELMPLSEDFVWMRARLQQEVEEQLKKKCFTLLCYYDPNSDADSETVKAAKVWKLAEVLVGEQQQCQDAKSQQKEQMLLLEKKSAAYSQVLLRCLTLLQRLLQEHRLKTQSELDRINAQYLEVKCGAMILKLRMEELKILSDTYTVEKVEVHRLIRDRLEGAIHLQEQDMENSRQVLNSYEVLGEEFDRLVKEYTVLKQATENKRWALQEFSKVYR
UniProt O94992, whole entry, looked up: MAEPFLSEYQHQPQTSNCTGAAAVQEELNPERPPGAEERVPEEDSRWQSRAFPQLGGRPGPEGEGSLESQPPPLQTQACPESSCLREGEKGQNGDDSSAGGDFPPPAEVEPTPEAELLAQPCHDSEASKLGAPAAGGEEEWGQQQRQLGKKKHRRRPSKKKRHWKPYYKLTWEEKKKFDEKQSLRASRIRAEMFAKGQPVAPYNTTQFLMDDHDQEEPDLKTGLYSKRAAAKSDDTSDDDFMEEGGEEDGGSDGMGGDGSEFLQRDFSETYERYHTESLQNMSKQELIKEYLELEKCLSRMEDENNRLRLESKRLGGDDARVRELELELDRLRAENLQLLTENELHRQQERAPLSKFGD

compound: Cn1cncc1[C@@](N)(c1ccc(Cl)cc1)c1ccc2c(c1)c(-c1cccc(Cl)c1)cc(=O)n2C [tipifarnib]; assay: log2 fold change, soluble protein after heating vs DMSO (PISA); higher = thermal stabilisation; K562 cells, 10 uM, 30 min; active = over 0.2 and 3.5 SD of the protein, either way, in both replicates (recomputed)
How it was run: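 Thermal stability values are relative to control samples and come from duplicates. They are expressed as log2 fold changes. For measurement, K562 cells (2×10^6 cells/mL) received 10 μM compound for 30 min, and aliquots were heated for 3 min over 48°C-58°C, pooled, and extracted at 4°C in PBS with 0.5% NP-40. Soluble protein, the supernatant after 21,000xg for 90 min, was quantified by TMTpro 16plex LC-MS/MS with equalised channel sums.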

Target | log2 fold change
HERC2 (UniProt O95714) | inactive: -0.076
HAX1 (UniProt O00165) | inactive: -0.112
HEBP2 (UniProt Q9Y5Z4) | inactive: -0.026
GYS1 (UniProt P13807) | inactive: 0.147
HBA1 (UniProt P69905) | inactive: -0.084
H1-2 (UniProt P16403) | inactive: 0.189
GTPBP3 isoform 2 (UniProt Q969Y2) | inactive: 0.036
GSKIP (UniProt Q9P0R6) | inactive: 0.022
HAT1 (UniProt O14929) | inactive: 0.004
GTSF1 (UniProt Q8WW33) | inactive: 0.025
HADH isoform 2 (UniProt Q16836) | inactive: 0.071
HDHD2 (UniProt Q9H0R4) | inactive: -0.011
HDAC6 (UniProt Q9UBN7) | inactive: -0.009
GSTP1 (UniProt P09211) | inactive: -0.007
H1FX (UniProt Q92522) | inactive: 0.126
HCLS1 (UniProt P14317) | inactive: -0.015
GYPA (UniProt P02724) | inactive: -0.084
HEXB (UniProt P07686) | inactive: 0.026
HAUS4 (UniProt Q9H6D7) | inactive: -0.115
HEBP1 (UniProt Q9NRV9) | inactive: -0.051
GXYLT1 (UniProt Q4G148) | inactive: 0.012
HEMGN (UniProt Q9BXL5) | inactive: 0.035
HBG1 (UniProt P69891) | inactive: -0.159
HEXIM1 (UniProt O94992) | inactive: 0.006

Reformatted: entries from further up
Target	log2 fold change
HAX1 (UniProt O00165)	inactive: -0.112
HEBP2 (UniProt Q9Y5Z4)	inactive: -0.026
GYS1 (UniProt P13807)	inactive: 0.147
HBA1 (UniProt P69905)	inactive: -0.084
H1-2 (UniProt P16403)	inactive: 0.189
